Assay results as given in PMC11231564.
Results are given in words; binding and its absence hold for the method and conditions named.

Chains of the proteins cited; added tags and fusions are not shown. Residues count along the entry.
UniProt P10155: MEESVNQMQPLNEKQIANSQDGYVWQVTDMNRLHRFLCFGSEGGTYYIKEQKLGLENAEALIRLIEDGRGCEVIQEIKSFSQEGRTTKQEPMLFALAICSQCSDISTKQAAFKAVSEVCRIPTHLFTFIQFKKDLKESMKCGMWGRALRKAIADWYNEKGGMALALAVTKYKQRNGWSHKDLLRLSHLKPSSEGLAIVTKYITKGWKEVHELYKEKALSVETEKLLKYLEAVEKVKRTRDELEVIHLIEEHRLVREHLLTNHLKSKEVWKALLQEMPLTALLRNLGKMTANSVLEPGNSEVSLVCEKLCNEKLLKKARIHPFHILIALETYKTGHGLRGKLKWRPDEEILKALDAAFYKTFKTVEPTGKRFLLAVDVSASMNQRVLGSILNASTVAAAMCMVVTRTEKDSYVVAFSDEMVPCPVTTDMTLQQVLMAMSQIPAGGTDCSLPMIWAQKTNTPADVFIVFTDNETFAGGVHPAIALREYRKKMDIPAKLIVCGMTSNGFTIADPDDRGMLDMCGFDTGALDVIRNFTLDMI
UniProt P02769, residues 25-607: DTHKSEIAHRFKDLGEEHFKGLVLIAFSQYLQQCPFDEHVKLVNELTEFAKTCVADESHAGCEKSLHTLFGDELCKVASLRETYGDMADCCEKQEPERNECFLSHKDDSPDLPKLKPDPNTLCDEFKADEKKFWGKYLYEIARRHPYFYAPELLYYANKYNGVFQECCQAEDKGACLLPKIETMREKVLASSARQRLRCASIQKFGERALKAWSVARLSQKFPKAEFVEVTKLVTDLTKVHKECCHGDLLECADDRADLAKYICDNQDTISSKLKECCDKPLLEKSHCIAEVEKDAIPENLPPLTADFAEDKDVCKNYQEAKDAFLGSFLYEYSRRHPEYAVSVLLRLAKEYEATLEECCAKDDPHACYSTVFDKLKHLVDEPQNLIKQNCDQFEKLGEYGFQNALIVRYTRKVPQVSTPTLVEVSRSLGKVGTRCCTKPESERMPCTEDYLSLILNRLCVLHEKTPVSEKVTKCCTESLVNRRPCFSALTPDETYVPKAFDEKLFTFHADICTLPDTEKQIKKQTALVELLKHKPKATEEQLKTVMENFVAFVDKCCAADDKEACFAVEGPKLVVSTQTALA

Molecular target: Ro60 protein (recombinant human protein) (human) (UniProt P10155)
Assay: QCM-D; Ro60 coupled to the chip; Ro52 300 mg/L (BSA 700 mg/L) flowed over; 1x PBS pH 7.4 lacking CaCl2, 50 µL/min, 25 °C; one-to-one binding kinetics model; apparent equilibrium constant; both purified

Substance: bovine serum albumin (from UniProt P02769 25-607)
- binding: no binding (tested: 700 mg/L)
